Test results reported in article PMC7332293.
These are yes or no findings as the source states them, for the method shown. In cells and extracts the contact can be indirect. A yes stands for co-enrichment or nearness to the bait. Other partners may have been found. For part of these data: Where a sequence is shown, tags or fusion partners need not be part of it.

Amino acid sequences for entries named in this document (tags omitted). A change or cut given only in a name is not applied to a line headed by its entry.
UniProt Q9BY78: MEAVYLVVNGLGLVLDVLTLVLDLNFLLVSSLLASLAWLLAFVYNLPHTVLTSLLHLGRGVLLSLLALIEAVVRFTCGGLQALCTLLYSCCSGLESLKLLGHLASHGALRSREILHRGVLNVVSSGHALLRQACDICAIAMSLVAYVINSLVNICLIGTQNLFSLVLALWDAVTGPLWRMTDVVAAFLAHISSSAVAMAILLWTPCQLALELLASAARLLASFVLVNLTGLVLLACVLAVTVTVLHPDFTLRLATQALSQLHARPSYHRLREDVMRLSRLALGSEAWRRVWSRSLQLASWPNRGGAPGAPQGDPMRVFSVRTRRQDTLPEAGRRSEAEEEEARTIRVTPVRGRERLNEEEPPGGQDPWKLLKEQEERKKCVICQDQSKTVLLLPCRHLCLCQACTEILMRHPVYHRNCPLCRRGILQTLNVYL
UniProt Q9UKV5: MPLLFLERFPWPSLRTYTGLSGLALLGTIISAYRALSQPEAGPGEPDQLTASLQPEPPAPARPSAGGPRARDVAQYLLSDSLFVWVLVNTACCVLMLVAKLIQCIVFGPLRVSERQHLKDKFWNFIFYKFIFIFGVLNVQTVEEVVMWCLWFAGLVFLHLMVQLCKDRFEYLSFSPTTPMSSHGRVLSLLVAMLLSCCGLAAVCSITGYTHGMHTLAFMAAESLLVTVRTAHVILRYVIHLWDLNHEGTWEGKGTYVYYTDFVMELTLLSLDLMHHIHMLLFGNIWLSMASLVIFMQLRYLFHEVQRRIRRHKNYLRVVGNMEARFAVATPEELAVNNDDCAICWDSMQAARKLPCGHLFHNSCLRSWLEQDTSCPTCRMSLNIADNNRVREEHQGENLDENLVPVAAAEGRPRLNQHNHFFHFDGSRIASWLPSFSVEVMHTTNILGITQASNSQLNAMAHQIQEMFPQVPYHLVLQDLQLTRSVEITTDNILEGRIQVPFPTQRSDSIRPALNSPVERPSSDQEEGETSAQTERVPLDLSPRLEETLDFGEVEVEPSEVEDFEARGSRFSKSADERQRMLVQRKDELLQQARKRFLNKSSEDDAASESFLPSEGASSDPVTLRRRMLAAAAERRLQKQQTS
UniProt Q99942: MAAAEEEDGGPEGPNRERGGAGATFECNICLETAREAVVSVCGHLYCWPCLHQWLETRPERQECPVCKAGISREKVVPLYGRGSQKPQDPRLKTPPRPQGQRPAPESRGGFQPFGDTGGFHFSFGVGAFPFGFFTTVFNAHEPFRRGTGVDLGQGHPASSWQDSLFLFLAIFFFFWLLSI

What was measured:
Experiment in all cases: affinity purification with mass spectrometry; FLAG-HA-tagged E3 induced with DOX in stable Flp-In293 cells; lysates in 1% LMNG (150 mM NaCl, 50 mM Tris-HCl pH 7.4, 5 mM EDTA); anti-FLAG agarose, 2 hr; eluted with SDS; LC-MS/MS; HCIPs by BSCG and SINQ analysis
Hrd1-FH (human), Q86TM6 = conditions: remark: other sources report otherwise
FH-RNF26_(Y432A) (human) = FH-RNF26_(Y432A) (human) (UniProt Q9BY78)
[1] = molecular target: FLAG-HA-tagged gp78/AMFR (human) (UniProt Q9UKV5)
FH-RNF185 (human) = molecular target: T1, FH-RNF185 (human) (UniProt Q96GF1)
T1 sequence: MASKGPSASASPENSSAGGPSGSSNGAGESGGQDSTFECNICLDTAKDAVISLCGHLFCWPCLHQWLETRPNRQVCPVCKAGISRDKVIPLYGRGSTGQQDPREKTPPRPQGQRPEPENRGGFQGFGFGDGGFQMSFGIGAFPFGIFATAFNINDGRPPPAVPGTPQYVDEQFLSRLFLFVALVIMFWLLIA

[2] = molecular target: T2, FLAG-HA-tagged RNF170 (human) (UniProt Q96K19)
T2 sequence: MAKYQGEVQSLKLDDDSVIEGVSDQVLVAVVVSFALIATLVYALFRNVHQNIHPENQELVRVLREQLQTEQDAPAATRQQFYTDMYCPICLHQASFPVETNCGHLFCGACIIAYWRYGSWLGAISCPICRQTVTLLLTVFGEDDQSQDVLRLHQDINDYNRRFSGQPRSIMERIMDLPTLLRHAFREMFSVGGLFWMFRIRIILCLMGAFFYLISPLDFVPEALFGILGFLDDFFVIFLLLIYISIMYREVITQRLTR

[3] = molecular target: FLAG-HA-tagged RNF5 (human) (UniProt Q99942)
[4] = molecular target: T3, FLAG-HA-tagged CGRRF1 (human) (UniProt Q99675)
T3 sequence: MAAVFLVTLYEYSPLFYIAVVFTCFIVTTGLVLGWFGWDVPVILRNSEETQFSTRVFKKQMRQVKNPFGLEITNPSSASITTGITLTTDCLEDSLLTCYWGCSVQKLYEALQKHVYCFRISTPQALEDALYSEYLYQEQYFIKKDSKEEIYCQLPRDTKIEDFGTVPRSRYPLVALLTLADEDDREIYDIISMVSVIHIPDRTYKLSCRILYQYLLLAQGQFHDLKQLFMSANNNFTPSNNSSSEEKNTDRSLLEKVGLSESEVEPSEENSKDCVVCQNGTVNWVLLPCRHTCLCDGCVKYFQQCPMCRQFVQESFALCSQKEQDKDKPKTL

FH-RNF26WT (human) = FH-RNF26WT (human) (UniProt Q9BY78)

B1: UBE2J1, Q9Y385 1-318 (enzyme)
chain: METRYNLKSPAVKRLMKEAAELKDPTDHYHAQPLEDNLFEWHFTVRGPPDSDFDGGVYHGRIVLPPEYPMKPPSIILLTANGRFEVGKKICLSISGHHPETWQPSWSIRTALLAIIGFMPTKGEGAIGSLDYTPEERRALAKKSQDFCCEGCGSAMKDVLLPLKSGSDSSQADQEAKELARQISFKAEVNSSGKTISESDLNHSFSLTDLQDDIPTTFQGATASTSYGLQNSSAASFHQPTQPVAKNTSMSPRQRRAQQQSQRRLSTSPDVIQGHQPRDNHTDHGGSAVLIVILTLALAALIFRRIYLANEYIFDFEL
binding (Hrd1-FH (human), Q86TM6): binds

B2: Herp, Q15011 1-391 (protein)
chain: MESETEPEPVTLLVKSPNQRHRDLELSGDRGWSVGHLKAHLSRVYPERPRPEDQRLIYSGKLLLDHQCLRDLLPKQEKRHVLHLVCNVKSPSKMPEINAKVAESTEEPAGSNRGQYPEDSSSDGLRQREVLRNLSSPGWENISRPEAAQQAFQGLGPGFSGYTPYGWLQLSWFQQIYARQYYMQYLAATAASGAFVPPPSAQEIPVVSAPAPAPIHNQFPAENQPANQNAAPQVVVNPGANQNLRMNAQGGPIVEEDDEINRDWLDWTYSAATFSVFLSILYFYSSLSRFLMVMGATVVMYLHHVGWFPFRPRPVQNFPNDGPPPDVVNQDPNNNLQEGTDPETEDPNHLPPDRDVLDGEQTSPSFMSTAWLVFKTFFASLLPEGPPAIAN
binding (Hrd1-FH (human), Q86TM6): binds

B3: FAF2/UBXD8 (endogenous) (protein, UniProt Q96CS3 1-445)
chain: MAAPEERDLTQEQTEKLLQFQDLTGIESMDQCRHTLEQHNWNIEAAVQDRLNEQEGVPSVFNPPPSRPLQVNTADHRIYSYVVSRPQPRGLLGWGYYLIMLPFRFTYYTILDIFRFALRFIRPDPRSRVTDPVGDIVSFMHSFEEKYGRAHPVFYQGTYSQALNDAKRELRFLLVYLHGDDHQDSDEFCRNTLCAPEVISLINTRMLFWACSTNKPEGYRVSQALRENTYPFLAMIMLKDRRMTVVGRLEGLIQPDDLINQLTFIMDANQTYLVSERLEREERNQTQVLRQQQDEAYLASLRADQEKERKKREERERKRRKEEEVQQQKLAEERRRQNLQEEKERKLECLPPEPSPDDPESVKIIFKLPNDSRVERRFHFSQSLTVIHDFLFSLKESPEKFQIEANFPRRVLPCIPSEEWPNPPTLQEAGLSHTEVLFVQDLTDE
binding (FH-RNF26_(Y432A) (human)): binds | binding [1]: binds

B4: ERLIN1 (protein, UniProt O75477 1-348)
chain: MNMTQARVLVAAVVGLVAVLLYASIHKIEEGHLAVYYRGGALLTSPSGPGYHIMLPFITTFRSVQTTLQTDEVKNVPCGTSGGVMIYIDRIEVVNMLAPYAVFDIVRNYTADYDKTLIFNKIHHELNQFCSAHTLQEVYIELFDQIDENLKQALQKDLNLMAPGLTIQAVRVTKPKIPEAIRRNFELMEAEKTKLLIAAQKQKVVEKEAETERKKAVIEAEKIAQVAKIRFQQKVMEKETEKRISEIEDAAFLAREKAKADAEYYAAHKYATSNKHKLTPEYLELKKYQAIASNSKIYFGSNIPNMFVDSSCALKYSDIRTGRESSLPSKEALEPSGENVIQNKESTG
binding (FH-RNF185 (human)): binds | binding [2]: binds | binding [3]: binds | binding [1]: binds

B5: Evi/WLS/GPR177 (protein, UniProt Q5T9L3 1-541)
chain: MAGAIIENMSTKKLCIVGGILLVFQIIAFLVGGLIAPGPTTAVSYMSVKCVDARKNHHKTKWFVPWGPNHCDKIRDIEEAIPREIEANDIVFSVHIPLPHMEMSPWFQFMLFILQLDIAFKLNNQIRENAEVSMDVSLAYRDDAFAEWTEMAHERVPRKLKCTFTSPKTPEHEGRYYECDVLPFMEIGSVAHKFYLLNIRLPVNEKKKINVGIGEIKDIRLVGIHQNGGFTKVWFAMKTFLTPSIFIIMVWYWRRITMMSRPPVLLEKVIFALGISMTFINIPVEWFSIGFDWTWMLLFGDIRQGIFYAMLLSFWIIFCGEHMMDQHERNHIAGYWKQVGPIAVGSFCLFIFDMCERGVQLTNPFYSIWTTDIGTELAMAFIIVAGICLCLYFLFLCFMVFQVFRNISGKQSSLPAMSKVRRLHYEGLIFRFKFLMLITLACAAMTVIFFIVSQVTEGHWKWGGVTVQVNSAFFTGIYGMWNLYVFALMFLYAPSHKNYGEDQSNGDLGVHSGEELQLTTTITHVDGPTEIYKLTRKEAQE
binding [4]: binds

B6: TMEM43/LUMA (endogenous) (protein, UniProt Q9BTV4 1-400)
chain: MAANYSSTSTRREHVKVKTSSQPGFLERLSETSGGMFVGLMAFLLSFYLIFTNEGRALKTATSLAEGLSLVVSPDSIHSVAPENEGRLVHIIGALRTSKLLSDPNYGVHLPAVKLRRHVEMYQWVETEESREYTEDGQVKKETRYSYNTEWRSEIINSKNFDREIGHKNPSAMAVESFMATAPFVQIGRFFLSSGLIDKVDNFKSLSLSKLEDPHVDIIRRGDFFYHSENPKYPEVGDLRVSFSYAGLSGDDPDLGPAHVVTVIARQRGDQLVPFSTKSGDTLLLLHHGDFSAEEVFHRELRSNSMKTWGLRAAGWMAMFMGLNLMTRILYTLVDWFPVFRDLVNIGLKAFAFCVATSLTLLTVAAGWLFYRPLWALLIAGLALVPILVARTRVPAKKLE
binding (FH-RNF26WT (human)): binds | binding (FH-RNF26_(Y432A) (human)): binds

B7: AUP1 (endogenous) (protein, UniProt Q9Y679 1-410)
chain: MELPSGPGPERLFDSHRLPGDCFLLLVLLLYAPVGFCLLVLRLFLGIHVFLVSCALPDSVLRRFVVRTMCAVLGLVARQEDSGLRDHSVRVLISNHVTPFDHNIVNLLTTCSTPLLNSPPSFVCWSRGFMEMNGRGELVESLKRFCASTRLPPTPLLLFPEEEATNGREGLLRFSSWPFSIQDVVQPLTLQVQRPLVSVTVSDASWVSELLWSLFVPFTVYQVRWLRPVHRQLGEANEEFALRVQQLVAKELGQTGTRLTPADKAEHMKRQRHPRLRPQSAQSSFPPSPGPSPDVQLATLAQRVKEVLPHVPLGVIQRDLAKTGCVDLTITNLLEGAVAFMPEDITKGTQSLPTASASKFPSSGPVTPQPTALTFAKSSWARQESLQERKQALYEYARRRFTERRAQEAD
binding (FH-RNF26_(Y432A) (human)): binds
